Results as given in paper PMC3568144, “Pseudomonas aeruginosa PA1006 Is a Persulfide-Modified Protein That Is Critical for Molybdenum Homeostasis” (PLoS ONE, 2013).
No constants are given. Whether binding was seen depends on the method and setting. In cells and extracts the contact can be indirect. Some results given as binding are weak or reduced against the parent protein; the word gives no strength. Tags and fused reporters may be left off the sequences shown.

Protein sequences, listed by entry. Tags and fused reporters are not part of them.
UniProt Q9HXI8: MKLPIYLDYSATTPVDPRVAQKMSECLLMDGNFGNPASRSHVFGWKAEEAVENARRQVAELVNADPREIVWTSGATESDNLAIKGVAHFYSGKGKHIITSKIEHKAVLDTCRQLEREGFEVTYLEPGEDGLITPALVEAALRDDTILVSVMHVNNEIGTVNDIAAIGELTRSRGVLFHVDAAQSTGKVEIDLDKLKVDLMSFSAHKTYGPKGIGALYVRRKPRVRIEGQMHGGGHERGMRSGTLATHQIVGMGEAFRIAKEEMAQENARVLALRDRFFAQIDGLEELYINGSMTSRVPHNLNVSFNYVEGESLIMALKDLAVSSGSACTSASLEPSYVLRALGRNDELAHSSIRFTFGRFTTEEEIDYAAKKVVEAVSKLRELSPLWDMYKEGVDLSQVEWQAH

T1: PA1006 (GFP-PFCA fusion in Pae) (Pseudomonas aeruginosa) (UniProt Q9I4W7)
T1 sequence: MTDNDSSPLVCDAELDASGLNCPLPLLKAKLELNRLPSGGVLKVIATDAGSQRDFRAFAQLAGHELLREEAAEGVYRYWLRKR


What was measured:
[1] = biological target: T1, PA1006 (GFP-PFCA fusion in Pae) (Pseudomonas aeruginosa); assay: split reporter; GFP protein fragment complementation assay (GFP-PFCA) in P. aeruginosa cells; NGFP fusion from pEX1.8 (IPTG), CGFP fusion from the chromosome (arabinose); scored by eye with fluorescence microscopy
[2] = biological target: PA3814/IscS (GFP-PFCA fusion in Pae) (Pseudomonas aeruginosa) (UniProt Q9HXI8); assay: as above

| Binder | binding [1] | binding [2] |
| --- | --- | --- |
| PA3918/MoaC (GFP-PFCA fusion in Pae) (protein, UniProt Q9HX95 1-160) MLTHLDSQGRANMVDVTEKAVTSREATAEAVVRMRPETLQLIQDGGHPKGDVFAVARIAGIQAAKRTHELIPLCHPLLLTSVKLELQAEAPDAVRIRARCRLAGQTGVEMEALTAASVAALTIYDMCKAVDRGMVIEQVQLLEKLGGKSGHYRKEEEGQA | binds |  |
| PA3030/MobA (GFP-PFCA fusion in Pae) (protein, UniProt O68799 1-198) MPDSALPPCSILLLAGGRGQRMGGRDKGLIEWQGLPLIAHLHRLVRPLTDDLIVSCNRNQERYAAYADRVVSDDSRDFPGPLAGIRAGLAVARHPWLLVLPCDAPRIDRALLETLLQAAGRTPARPWMLRCGGQWEPLFSLIPTHLAEEIEHAWRQGDRSPRHVLLPLGAEAIELAAGDPRLANLNTPELLANHRELK | binds |  |
| PA3870/MoaA1 (GFP-PFCA fusion in Pae) (protein, UniProt Q9HXD6 1-329) MTDWIDGQGRQIDYLRLSVTDRCDFRCVYCMAEDMRFLPRQQVLTLEEIERVARLFVAGGVRKLRLTGGEPLVRPGIVGLCERLAALPGLRELCMTSNGSQLVRYARPLYDAGLSRLNISLDTLDPLRFRAITRNGELDKVLAGIDAAQAAGFRRIKLNAVVMKGRNADEVPALVDFAIARGLDISFIEEMPLGQVGRERGESFCSSDEVRALIAQRHALLDSAEQSGGPARYVRLVEHPQTRIGFISPHSHNFCATCNRLRLTVEGRLLLCLGHEHSLDLRALLRRHPLHDGPLLEAIGEALQRKPARHEFSAAGEVQVLRFMNMSGG | binds |  |
| PA1505/MoaA2 (GFP-PFCA fusion in Pae) (protein, UniProt Q9I3K7 1-331) MSDSRLVDPFGRRITYLRLSVTDRCDFRCTYCMSEDMQFLPRDQVLSLEELYAVADAFIGLGVRRIRITGGEPLVRKGITGLLARLGQRAELEDLAITTNGSQLRERAAELKAAGVRRLNVSLDSLQRERFAAFTRSDRLEQVLDGIQAAREAGFERIKLNCVVQKGRNDDEILDLVEYALANQLDISFIEEMPLGSITSHRRELTLCTSDEVRAIIERRWPLTPSLARSGGPSRYYQIGDEPSRIGFISPHSNNFCGDCNRVRVTAEGKLVLCLGHEGALDLRELLRSHPGDRERLSAALVAALNLKPERHHFDAQEQVQVLRFMSMTGG | binds |  |
| PA1564/YhhP/TusA (GFP-PFCA fusion in Pae) (protein, UniProt Q9I3F3 1-79) MTHSVDAILDATGLNCPEPVMMLHNKVRDLAPGGLLKVIATDPSTRRDIPKFCVFLGHELVEQQEEAGTYLYWIRKKAD | binds | binds |
| PA3873/NarJ (GFP-PFCA fusion in Pae) (protein, UniProt G3XCY9 1-246) MNDHSQLFRLLALLLDYPRAELREESLGLHALIRTCELPEALRDGLAALLNELCQGDLLDVQARYDGLFERGRSVSLLLFEHVHGESRDRGQAMVDLLDRYTGAGLQIDVPELPDYLPLYLEYLSLLPFAAASEGLAEVAHILGLLALRLEERGSAYAAIFEALLELGGERPDLGALRRDQAQEQRDDSLEAIDRAWEETPVSFTDPAGGCPSSSGRRPTASTEQPLQWVAQPVPQMQYRAAREGV | binds |  |
| PA3874/NarH (GFP-PFCA fusion in Pae) (protein, UniProt G3XD87 1-513) MKIRSQVGMVLNLDKCIGCHTCSITCKNVWTSREGMEYAWFNNVETKPGIGYPKEWENQEKWKGGWVRAADGSIRPRIGGKFRVLANIFANPDLPEIDDYYEPFDFDYQHLHTAPKAEHQPVARPRSLVSGQRMEKIEWGPNWEEILGTEFAKRRKDKNFDQVQADIYGEYENTFMMYLPRLCEHCLNPACVASCPSGAIYKREEDGIVLIDQDKCRGWRMCISGCPYKKIYFNWKSGKSEKCIFCYPRIEAGQPTVCSETCVGRIRYLGVLLYDADRIHEVASCENERELYEKQLEIFLDPFDPAVIAQARKDGVADSVIEAAQKSPVYKLAMDWKLALPLHPEYRTLPMVWYVPPLSPIQNAAAEGHIGSDGVIPDVESLRIPVQYLANLLTAGDTAPVLLALKRLLAMRAYKRAEHVEGRQDLEVLAKVGLSVEQVEEMYRYLAIANYEDRFVIPSAHREEALSDAFAERSGCGFSFGNGCSGGSNSAVNLFGGKPTNRRDVIQVVQIQE | binds |  |
| PA3916/MoaE (GFP-PFCA fusion in Pae) (protein, UniProt Q9HX97 1-150) MAIRVQQAAFDPGQELNALHAQNVGIGAVVGFVGYVRDFNDGREVGGMFLEHYPGMTEKALGKIAAEAGQRWPLLRLEILHRIGRLEPGEPIVFVGCASAHRQAAFDACNFVMDYLKTRAPFWKKEDTAEGPRWVEGRCSDQAAAQRWEE | no binding |  |
